{"sequences": {"note": "Sequences of proteins named here, by UniProt entry; tags and fusion partners are left off. Residues count along the entry.", "UniProt P19491, residues 22-883": "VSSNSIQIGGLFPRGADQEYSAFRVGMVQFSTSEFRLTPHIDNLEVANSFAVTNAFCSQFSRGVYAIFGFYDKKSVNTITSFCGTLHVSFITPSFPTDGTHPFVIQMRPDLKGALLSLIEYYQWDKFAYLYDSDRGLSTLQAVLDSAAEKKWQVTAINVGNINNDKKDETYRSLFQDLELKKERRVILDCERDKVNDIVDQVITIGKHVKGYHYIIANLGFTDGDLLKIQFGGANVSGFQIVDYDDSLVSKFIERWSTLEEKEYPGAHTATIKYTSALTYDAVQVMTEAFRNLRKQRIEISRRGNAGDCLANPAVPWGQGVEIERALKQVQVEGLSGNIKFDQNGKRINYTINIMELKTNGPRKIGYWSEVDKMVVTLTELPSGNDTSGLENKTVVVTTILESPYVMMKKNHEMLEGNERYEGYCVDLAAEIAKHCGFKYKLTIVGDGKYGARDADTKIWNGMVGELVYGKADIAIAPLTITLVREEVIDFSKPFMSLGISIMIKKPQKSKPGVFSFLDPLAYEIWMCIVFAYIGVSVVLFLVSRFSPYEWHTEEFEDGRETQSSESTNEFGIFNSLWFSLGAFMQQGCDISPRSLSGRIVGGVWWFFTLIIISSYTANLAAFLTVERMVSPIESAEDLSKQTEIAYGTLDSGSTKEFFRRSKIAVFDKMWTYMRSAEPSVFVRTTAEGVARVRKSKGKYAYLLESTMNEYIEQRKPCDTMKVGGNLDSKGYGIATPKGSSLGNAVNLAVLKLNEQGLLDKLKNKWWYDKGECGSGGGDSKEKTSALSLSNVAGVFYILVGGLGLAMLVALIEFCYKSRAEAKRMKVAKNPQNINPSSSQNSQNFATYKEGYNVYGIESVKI"}, "source": "paper PMC7162585", "molecular_target": "GluA2 (AMPA receptor subunit) (rat (endogenous in hippocampus of Sprague-Dawley rats)) (UniProt P19491)", "experiment": "co-IP; rat hippocampal tissue of epileptic rats homogenized in RIPA lysis buffer; incubated with anti-SAD-B or anti-GluA1-GluA4 antibody (rabbit IgG as control) 12 h at 4°C, protein A/G agarose beads 1.5 h at 4°C; immunoblot with anti-GluA1-GluA4 and anti-SAD-B antibodies", "note": "These are yes or no findings as the source states them, for the method shown. In cells and extracts the contact can be indirect. Some results given as binding are weak or reduced against the parent protein; the word gives no strength.", "data": [{"binder": "Brain-specific serine/threonine-protein kinase 1 (SAD-B) (protein, UniProt B2DD29 1-778) MSSGSKEGGGGSPAYHLPHPHPHPPQHAQYVGPYRLEKTLGKGQTGLVKLGVHCITGQKVAVKIVNREKLSESVLMKVEREIAILKLIEHPHVLKLHDVYENKKYLYLVLEHVSGGELFDYLVKKGRLTPKEARKFFRQIVSALDFCHSYSICHRDLKPENLLLDEKNNIRIADFGMASLQVGDSLLETSCGSPHYACPEVIKGEKYDGRRADMWSCGVILFALLVGALPFDDDNLRQLLEKVKRGVFHMPHFIPPDCQSLLRGMIEVEPEKRLSLEQIQKHPWYLGGKHEPDPCLEPAPGRRVAMRSLPSNGELDPDVLESMASLGCFRDRERLHRELRSEEENQEKMIYYLLLDRKERYPSCEDQDLPPRNDVDPPRKRVDSPMLSRHGKRRPERKSMEVLSITDAGSGGSPVPTRRALEMAQHSQRSRSVSGASTGLSSSPLSSPRSPVFSFSPEPGVGDEARGGGSPTSKTQTLPSRGPRGGGAGEQPPPPSARSTPLPGPPGSPRSSGGTPLHSPLHTPRASPTGTPGTTPPPSPGGGVGGAAWRSRLNSIRNSFLGSPRFHRRKMQVPTAEEMSSLTPESSPELAKRSWFGNFISLDKEEQIFLVLKDKPLSSIKADIVHAFLSIPSLSHSVLSQTSFRAEYKASGGPSVFQKPVRFQVDISSSEGPEPSPRRDGSSGGGIYSVTFTLISGPSRRFKRVVETIQAQLLSTHDQPSVQALADEKNGAQTRPAGTPPRSLQPPPGRPDPDLSSSPRRGPSKDKKLLATNGTPLP", "values": [{"measurement": "binding", "result": "binds"}]}]}
